Data reported in patent US20200347130A1 (JIANGSU HENGRUI MEDICINE, published 2020).
No constants are given. Whether binding was seen depends on the method and setting. Some entries that bind do so weakly or less than the wild type.

B1: h1719-010 (antibody, V domains shown)
VH: EVTLKESGPVLVKPTETLTLTCTVSGFSLSSYGVSWVRQPPGKGLEWLGVIWGDGNTNYHSVLISRLTISKDTSKSQVVLTLTNMDPVDTATYYCAKQNYYGSRYGYPIDYWGQGTTVTVSS
VL: DIQMTQSPSSVSASVGDRVTITCKATQDVGTAVAWYQQKPGKAPKLLIYWASTRHTGVPSRFSGSGSGTDFTLTISSLQPEDFATYYCQQYGSSVLTFGGGTKVEIK
notes: Only variable regions are tied to this name
B2: h1718-012 (antibody, V domains shown)
VH: EVQLVQSGAEVKKPGASVKVSCKASGYTITDYNMNWVRQAPGQRLEWIGVINPSYGITDYNQNFKDRVTITVDTSASTAYMELSSLRSEDTAVYYCAIQLRLPGYFDVWGQGTTVTVSS
VL: DIQMTQSPSSLSASVGDRVTITCKASQDINQYLNWFQQKPGKAPKTLIYRANRLVDGVPSRFSGSGSGQDYTLTISSLQPEDFATYYCLKYDEFPYTFGGGTKVEIK
notes: as for B1
B3: h1721-003 (antibody, V domains shown)
VH: EVTLKESGPVLVKPTETLTLTCTVSGFSLSSYGVNWIRQPPGKALEWLGVIWGDGSTNYHSALISRLTISKDTSKSQVVLTLTNMDPVDTATYYCAKNYFYGSRYGYAMDSWGQGTTVTVSS
VL: DIQMTQSPSSLSASVGDRVTITCRASENIYSSLAWYQQKPGKAPKLLIYNAKTLIEGVPSRFSGSGSGTDFTLTISSLQPEDFATYYCQHHYGTPYTFGGGTKVEIK
notes: Only variable regions are tied to this name; also called M721-003
B4: ch1720 (antibody, human IgG4 S228P, kappa, V domains shown)
VH: EFQLQQSGPELVKPGASVKISCKASAYSLTDYNMNWVKQSNGKSLEWIGVINPSYGISSYNQKFKGKATLTVDQSSSTAYMHLNSLTSEDSAVYYCARQLRLPGYFDVWGTGTTVTVSS
VL: DIKMTQSPSSKNASLGERVTITCKASQDINSYLNWFQQKPGKSPKTLIYRASRLVDGVPSRFSGSGSGQDYSLTISSLEYEDMGIYYCLKYDEFPYTFGGGTKLEIKR
notes: also called chimeric antibody corresponding to m1720
B5: h1722-010 (antibody, V domains shown)
VH: EVQLVQSGAEVKKPGSSVKVSCKASGGTFSDYWMHWVRQAPGQGLEWIGMLHPNSGTTSFNEKFKIRVTITADKSTSTAYMELSSLRSEDTAVYYCASDYSGPFAYWGQGTLVTVSS
VL: DIQLTQSPSSLSASVGDRVTITCSASSSVNYIHWYQQKPGKAPKRWIFDTSKLASGVPSRFSGSGSGTDYTLTISSLQPEDFATYYCQQWRSNPLTFGQGTKLEIK
notes: Only variable regions are tied to this name; also called M722-010

molecular target: T1, Biotinylated CD96 antigen (human, UniProt P40200-2 22-503, limits assumed, biotinylated); experiment: competition ELISA: antibody B pre-incubated with biotinylated CD96 antigen, added to a plate coated with antibody A, HRP-streptavidin, OD450; competitor: coated ch1720
T1 sequence (looked up): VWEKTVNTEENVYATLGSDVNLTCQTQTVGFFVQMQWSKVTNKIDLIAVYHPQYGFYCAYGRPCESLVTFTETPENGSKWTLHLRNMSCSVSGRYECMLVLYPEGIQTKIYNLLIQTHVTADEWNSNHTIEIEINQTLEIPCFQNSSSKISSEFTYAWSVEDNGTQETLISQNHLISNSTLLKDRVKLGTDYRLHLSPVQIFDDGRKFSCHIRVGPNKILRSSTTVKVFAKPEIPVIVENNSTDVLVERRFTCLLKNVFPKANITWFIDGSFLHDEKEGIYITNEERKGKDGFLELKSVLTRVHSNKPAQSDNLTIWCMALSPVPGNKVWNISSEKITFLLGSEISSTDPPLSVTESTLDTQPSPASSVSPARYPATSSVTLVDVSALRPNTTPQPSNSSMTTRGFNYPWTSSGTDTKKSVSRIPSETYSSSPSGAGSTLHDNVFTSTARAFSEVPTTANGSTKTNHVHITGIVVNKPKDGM
Experimental: (§1) Competitive assays of different antibodies binding to CD96 protein were used to classify binding epitopes of the antibodies. The specific experimental methods are as follows:
(§2) Antibody A was diluted to a concentration of 2 μg/ml with PBS buffer (Shanghai Yuanpei Biotechnology Co., Ltd. Cat No. B320), pH 7.4, added to a 96-well microtiter plate (Corning, Cat No. CLS3590-100EA) at a volume of 50 μl/well, and coated at 4° C. overnight. After discarding the liquid, 250 μl/well of 5% skim milk (BD skim milk, Cat No. 232100) blocking solution diluted with PBS was added, and the plate was incubated at 37° C. for 3 hours. After blocking, the blocking solution was discarded, and the plate was washed 5 times with PBST buffer (pH 7.4 PBS containing 0.05% tween-20) and stored for later use. Antibody B was diluted to 40 μg/ml and 8 μg/ml with 1% BSA, and Biotinylated CD96 antigen was simultaneously diluted to 4 μg/mL. Subsequently, antibody B and antigen were mixed in a 1:1 volume ratio, pre-incubated at 37° C. for 45 minutes, added into the enzyme plate coated with antibody A, thus incubating the plate in an incubator at 37° C. for 1.5 hours. After incubation, the plate was washed for 5 times with PBST, and 50 μl/well of HRP-labeled streptavidin (Sigma, Cat No. 52438) diluted with sample dilution was added, followed by incubating the plate at 37° C. for 1 hour. After washing the plate 5 times with PBST, 50 μl/well of TMB chromogenic substrate (KPL, Cat No. 52-00-03) was added for color development, followed by adding 50 μl/well of 1M H₂SO₄ to stop the reaction. The absorption value was read at 450 nm with a NOVOStar microplate reader, and the OD value was used to determine whether A and B CD96 antibodies compete with each other. Antibodies that compete with each other fall into the same class of antibodies, otherwise belong to different classes of antibodies (see FIG. 3 and Table 18).

binding, binds:
B1
B2
B3
B4

molecular target: T1, Biotinylated CD96 antigen; experiment: competition ELISA: antibody B pre-incubated with biotinylated CD96 antigen, added to a plate coated with antibody A, HRP-streptavidin, OD450; competitor: coated h1718-012
Experimental: as §1, §2

binding, binds:
B1
B2
B3
B4

molecular target: T1, Biotinylated CD96 antigen; experiment: competition ELISA: antibody B pre-incubated with biotinylated CD96 antigen, added to a plate coated with antibody A, HRP-streptavidin, OD450; competitor: coated h1721-003
Experimental: as §1, §2

binding, binds:
B1
B2
B3
B4

molecular target: T1, Biotinylated CD96 antigen; experiment: competition ELISA: antibody B pre-incubated with biotinylated CD96 antigen, added to a plate coated with antibody A, HRP-streptavidin, OD450; competitor: coated h1722-010
Experimental: as §1
as §2, with “After incubation, the plate was washed for 5 times with PBST, and 50 μl/well of HRP-labeled streptavidin (Sigma, Cat No. 52438) diluted with sample dilution was added, followed by incubating the plate at 37° C. for 1 hour. After washing the plate 5 times with PBST, 50 μl/well of TMB chromogenic substrate (KPL, Cat No. 52-00-03) was added for color development, followed by adding 50 μl/well of 1M H₂SO₄ to stop the reaction.” left out, “Antibodies that compete with each other fall into the same class of antibodies, otherwise belong to different classes of antibodies (see FIG. 3 and Table 18).” left out

binding, binds:
B5

molecular target: T1, Biotinylated CD96 antigen; experiment: competition ELISA: antibody B pre-incubated with biotinylated CD96 antigen, added to a plate coated with antibody A, HRP-streptavidin, OD450; competitor: coated h1719-014 (named by the legend paragraph 84)
Experimental: as §1, §2

binding, binds:
B1
B2
B3
B4
